Reference: the supplement of paper PMC8728848
The list shows a part of the results.

Experiments:
Assay in all cases: glycan array binding signal (z-score within array); higher = stronger binding
Details in all cases: glycan notation: IUPAC condensed, linker removed
[1] = target: Fuc(a1-2)Gal(b1-4)[Fuc(a1-3)]GlcNAc
How it was run: (§1)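 Glycan array data were curated from 3228 arrays in the Consortium for Functional Glycomics database and kept only where the protein sequence was available. Glycan names were converted to IUPAC-condensed notation, and columns mapping to the same glycan were averaged. The binding signal is a within-array Z-score, averaged across arrays of the same protein sequence at different concentrations or buffers and across linkers. Negative Z-scores can be read as non-binding.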

[2] = target: Fuc(a1-2)Gal(b1-4)[Fuc(a1-3)]GlcNAc(b1-2)Man(a1-3)[Fuc(a1-2)Gal(b1-4)[Fuc(a1-3)]GlcNAc(b1-2)Man(a1-6)]Man(b1-4)GlcNAc(b1-4)[Fuc(a1-6)]GlcNAc
How it was run: as §1

[3] = target: Fuc(a1-2)Gal(b1-4)[Fuc(a1-3)]GlcNAc(b1-2)[Fuc(a1-2)Gal(b1-4)[Fuc(a1-3)]GlcNAc(b1-4)]Man(a1-3)[Fuc(a1-2)Gal(b1-4)[Fuc(a1-3)]GlcNAc(b1-2)Man(a1-6)]Man(b1-4)GlcNAc(b1-4)GlcNAc
How it was run: as §1

[4] = target: Fuc(a1-2)Gal(b1-4)[Fuc(a1-3)]GlcNAc(b1-3)Gal(b1-4)[Fuc(a1-3)]GlcNAc
How it was run: as §1

[5] = target: Fuc(a1-2)Gal(b1-4)[Fuc(a1-3)]GlcNAc(b1-3)Gal(b1-4)[Fuc(a1-3)]GlcNAc(b1-3)Gal(b1-4)[Fuc(a1-3)]GlcNAc
How it was run: as §1

[6] = target: Fuc(a1-2)Gal(b1-4)[Fuc(a1-3)]GlcNAc(b1-3)GalNAc
How it was run: as §1

[7] = target: Fuc(a1-2)Gal(b1-4)[Fuc(a1-3)]GlcNAc(b1-3)[Neu5Ac(a2-6)Gal(b1-4)GlcNAc(b1-6)]Gal(b1-4)Glc
How it was run: as §1

[8] = target: Fuc(a1-2)Gal3S(b1-4)GlcNAc
How it was run: as §1

[9] = target: Fuc(a1-2)Gal6S(b1-3)GlcNAc
How it was run: as §1

[10] = target: Fuc(a1-2)Gal6S(b1-3)GlcNAc6S
How it was run: as §1

[11] = target: Fuc(a1-2)Gal6S(b1-4)Glc
How it was run: as §1

[12] = target: Fuc(a1-2)Gal6S(b1-4)Glc6S
How it was run: as §1

[13] = target: Fuc(a1-2)[Gal(a1-3)]Gal
How it was run: as §1

[14] = target: Fuc(a1-2)[Gal(a1-3)]Gal(b1-3)GalNAc
How it was run: as §1

[15] = target: Fuc(a1-2)[Gal(a1-3)]Gal(b1-3)GalNAc(b1-3)Gal(a1-4)Gal(b1-4)Glc
How it was run: as §1

[16] = target: Fuc(a1-2)[Gal(a1-3)]Gal(b1-3)GlcNAc
How it was run: as §1

[17] = target: Fuc(a1-2)[Gal(a1-3)]Gal(b1-3)GlcNAc(b1-2)Man(a1-3)[Fuc(a1-2)[Gal(a1-3)]Gal(b1-3)GlcNAc(b1-2)Man(a1-6)]Man(b1-4)GlcNAc(b1-4)GlcNAc
How it was run: as §1

[18] = target: Fuc(a1-2)[Gal(a1-3)]Gal(b1-3)GlcNAc(b1-2)Man(a1-3)[Fuc(a1-2)[Gal(a1-3)]Gal(b1-3)GlcNAc(b1-2)Man(a1-6)]Man(b1-4)GlcNAc(b1-4)[Fuc(a1-6)]GlcNAc
How it was run: as §1

[19] = target: Fuc(a1-2)[Gal(a1-3)]Gal(b1-3)GlcNAc(b1-3)GalNAc
How it was run: as §1

[20] = target: Fuc(a1-2)[Gal(a1-3)]Gal(b1-3)GlcNAc(b1-6)GalNAc
How it was run: as §1

[21] = target: Fuc(a1-2)[Gal(a1-3)]Gal(b1-4)Glc
How it was run: as §1

[22] = target: Fuc(a1-2)[Gal(a1-3)]Gal(b1-4)GlcNAc
How it was run: as §1

[23] = target: Fuc(a1-2)[Gal(a1-3)]Gal(b1-4)GlcNAc(b1-2)Man
How it was run: as §1

[24] = target: Fuc(a1-2)[Gal(a1-3)]Gal(b1-4)GlcNAc(b1-2)Man(a1-3)[Fuc(a1-2)[Gal(a1-3)]Gal(b1-4)GlcNAc(b1-2)Man(a1-6)]Man(b1-4)GlcNAc(b1-4)GlcNAc
How it was run: as §1

[25] = target: Fuc(a1-2)[Gal(a1-3)]Gal(b1-4)GlcNAc(b1-2)Man(a1-3)[Fuc(a1-2)[Gal(a1-3)]Gal(b1-4)GlcNAc(b1-2)Man(a1-6)]Man(b1-4)GlcNAc(b1-4)[Fuc(a1-6)]GlcNAc
How it was run: as §1

[26] = target: Fuc(a1-2)[Gal(a1-3)]Gal(b1-4)GlcNAc(b1-3)GalNAc
How it was run: as §1

[27] = target: Fuc(a1-2)[Gal(a1-3)]Gal(b1-4)GlcNAc(b1-3)[Fuc(a1-2)[Gal(a1-3)]Gal(b1-4)GlcNAc(b1-6)]GalNAc
How it was run: as §1

[28] = target: Fuc(a1-2)[Gal(a1-3)]Gal(b1-4)GlcNAc(b1-6)GalNAc
How it was run: as §1

[29] = target: Fuc(a1-2)[Gal(a1-3)]Gal(b1-4)[Fuc(a1-3)]Glc
How it was run: as §1

[30] = target: Fuc(a1-2)[Gal(a1-3)]Gal(b1-4)[Fuc(a1-3)]GlcNAc
How it was run: as §1

[31] = target: Fuc(a1-2)[Gal(a1-3)]Gal(b1-4)[Fuc(a1-3)]GlcNAc(b1-3)GalNAc
How it was run: as §1

[32] = target: Fuc(a1-2)[Gal(a1-4)]Gal(b1-4)GlcNAc
How it was run: as §1

[33] = target: Fuc(a1-2)[GalNAc(a1-3)]Gal
How it was run: as §1

[34] = target: Fuc(a1-2)[GalNAc(a1-3)]Gal(b1-3)GalNAc(a1-3)[Fuc(a1-2)]Gal(b1-4)GlcNAc
How it was run: as §1

[35] = target: Fuc(a1-2)[GalNAc(a1-3)]Gal(b1-3)GalNAc(b1-3)Gal(a1-4)Gal(b1-4)Glc
How it was run: as §1

[36] = target: Fuc(a1-2)[GalNAc(a1-3)]Gal(b1-3)GlcNAc
How it was run: as §1

[37] = target: Fuc(a1-2)[GalNAc(a1-3)]Gal(b1-3)GlcNAc(b1-2)Man(a1-3)[Fuc(a1-2)[GalNAc(a1-3)]Gal(b1-3)GlcNAc(b1-2)Man(a1-6)]Man(b1-4)GlcNAc(b1-4)GlcNAc
How it was run: as §1

[38] = target: Fuc(a1-2)[GalNAc(a1-3)]Gal(b1-3)GlcNAc(b1-2)Man(a1-3)[Fuc(a1-2)[GalNAc(a1-3)]Gal(b1-3)GlcNAc(b1-2)Man(a1-6)]Man(b1-4)GlcNAc(b1-4)[Fuc(a1-6)]GlcNAc
How it was run: as §1

B1: Drgal1 (Danio rerio) (protein)
chain: MAGVLIQNMSFKVGQTLTITGVPKPDSTNFAINIGHSPEDIALHMNPRFDAHGDQCTIVCNSFQSGSWCEEHRDDNFPFIQDKEFQIKITFTNEEFLVTLPDGSEIHFPNRQGSEKYKYMYFEGEVRIQGVEIK
Question: Which results are given for B1?
Answer: glycan array binding signal (z-score) [1]: -0.453; glycan array binding signal (z-score) [2]: -0.112; glycan array binding signal (z-score) [3]: -0.314; glycan array binding signal (z-score) [4]: -0.06; glycan array binding signal (z-score) [5]: -0.707; glycan array binding signal (z-score) [6]: -0.382; glycan array binding signal (z-score) [7]: -0.519; glycan array binding signal (z-score) [8]: 0.18; glycan array binding signal (z-score) [9]: 0.478; glycan array binding signal (z-score) [10]: 0.365; glycan array binding signal (z-score) [11]: 0.19; glycan array binding signal (z-score) [12]: -0.797; glycan array binding signal (z-score) [13]: 0.491; glycan array binding signal (z-score) [14]: 0.013; glycan array binding signal (z-score) [15]: 0.079; glycan array binding signal (z-score) [16]: -0.397; glycan array binding signal (z-score) [17]: -0.061; glycan array binding signal (z-score) [18]: -0.371; glycan array binding signal (z-score) [19]: -0.568; glycan array binding signal (z-score) [20]: 0.084; glycan array binding signal (z-score) [21]: -0.074; glycan array binding signal (z-score) [22]: 0.185; glycan array binding signal (z-score) [23]: -0.129; glycan array binding signal (z-score) [24]: -0.079; glycan array binding signal (z-score) [25]: -0.098; glycan array binding signal (z-score) [26]: 0.04; glycan array binding signal (z-score) [27]: 0.226; glycan array binding signal (z-score) [28]: -0.867; glycan array binding signal (z-score) [29]: -0.54; glycan array binding signal (z-score) [30]: 0.086; glycan array binding signal (z-score) [31]: -0.367; glycan array binding signal (z-score) [32]: 0.347; glycan array binding signal (z-score) [33]: -0.457; glycan array binding signal (z-score) [34]: -0.091; glycan array binding signal (z-score) [35]: -0.262; glycan array binding signal (z-score) [36]: 0.247; glycan array binding signal (z-score) [37]: -0.585; glycan array binding signal (z-score) [38]: -0.55
